The list shows a part of the results.
Compound: Cc1cc(ccc1-c1ccccc1)C(=O)N1CCCN(CC1)C(=O)CCl [compound 10]
Test: probe-labelled cysteine peptide fold change vs DMSO (competition) (log2 fold change); higher = less target engagement (more negative = stronger competition)
Conditions: THP-1, incubation time: 4 h
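Further: competitive profiling in live THP-1 cells: cysteine peptides tagged with an iodoacetamide desthiobiotin (IA-DTB) probe, intensity after compound treatment relative to DMSO-treated cells.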

The chains behind the UniProt entries cited, without tags or fusion partners. Where a name states a change or a piece, a line headed by the entry shows the natural chain unless it says otherwise.
UniProt Q13423: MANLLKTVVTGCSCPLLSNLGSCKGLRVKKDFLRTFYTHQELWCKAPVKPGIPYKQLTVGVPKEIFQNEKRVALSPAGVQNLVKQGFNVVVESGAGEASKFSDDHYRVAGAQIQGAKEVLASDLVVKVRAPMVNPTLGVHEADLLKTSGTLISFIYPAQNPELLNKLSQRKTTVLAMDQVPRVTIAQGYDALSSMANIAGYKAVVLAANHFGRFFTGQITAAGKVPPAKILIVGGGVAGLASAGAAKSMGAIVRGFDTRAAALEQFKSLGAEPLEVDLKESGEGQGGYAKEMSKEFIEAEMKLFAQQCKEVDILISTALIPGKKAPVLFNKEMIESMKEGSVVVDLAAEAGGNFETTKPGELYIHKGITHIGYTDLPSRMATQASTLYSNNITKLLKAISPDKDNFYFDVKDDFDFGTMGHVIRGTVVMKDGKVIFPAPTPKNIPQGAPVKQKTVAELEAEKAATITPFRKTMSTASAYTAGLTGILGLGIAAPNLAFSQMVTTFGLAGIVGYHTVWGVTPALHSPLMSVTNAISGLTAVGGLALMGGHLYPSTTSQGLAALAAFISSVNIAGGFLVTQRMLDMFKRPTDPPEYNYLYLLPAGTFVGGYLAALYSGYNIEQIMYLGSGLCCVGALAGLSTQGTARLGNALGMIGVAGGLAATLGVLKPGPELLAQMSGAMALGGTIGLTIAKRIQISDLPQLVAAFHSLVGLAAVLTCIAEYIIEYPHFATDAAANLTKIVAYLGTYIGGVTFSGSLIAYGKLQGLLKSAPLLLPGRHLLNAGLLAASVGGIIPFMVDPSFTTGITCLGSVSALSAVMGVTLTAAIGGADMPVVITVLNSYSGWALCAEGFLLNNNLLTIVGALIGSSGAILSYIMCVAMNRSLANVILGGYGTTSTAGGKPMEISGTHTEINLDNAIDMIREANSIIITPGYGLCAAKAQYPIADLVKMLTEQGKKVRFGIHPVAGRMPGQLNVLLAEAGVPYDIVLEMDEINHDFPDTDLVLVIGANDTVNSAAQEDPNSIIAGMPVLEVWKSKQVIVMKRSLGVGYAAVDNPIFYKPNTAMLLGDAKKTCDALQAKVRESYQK
UniProt Q86U38: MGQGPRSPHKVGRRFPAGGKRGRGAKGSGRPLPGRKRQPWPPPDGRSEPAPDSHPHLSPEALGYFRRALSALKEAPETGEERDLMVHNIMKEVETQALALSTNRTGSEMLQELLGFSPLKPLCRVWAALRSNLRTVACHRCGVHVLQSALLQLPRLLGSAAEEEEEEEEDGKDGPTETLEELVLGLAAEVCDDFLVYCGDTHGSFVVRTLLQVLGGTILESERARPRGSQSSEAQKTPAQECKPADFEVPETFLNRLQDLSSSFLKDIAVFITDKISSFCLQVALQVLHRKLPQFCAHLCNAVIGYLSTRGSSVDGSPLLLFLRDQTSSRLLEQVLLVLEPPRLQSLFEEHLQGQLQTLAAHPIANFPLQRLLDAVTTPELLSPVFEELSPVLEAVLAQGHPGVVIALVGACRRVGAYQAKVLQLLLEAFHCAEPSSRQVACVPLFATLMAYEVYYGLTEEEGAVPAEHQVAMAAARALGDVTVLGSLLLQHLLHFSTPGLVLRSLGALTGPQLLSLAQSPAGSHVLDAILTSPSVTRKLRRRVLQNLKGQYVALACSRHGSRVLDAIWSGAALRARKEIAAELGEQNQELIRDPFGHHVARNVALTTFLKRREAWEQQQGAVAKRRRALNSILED
UniProt Q86UT6, whole entry, looked up: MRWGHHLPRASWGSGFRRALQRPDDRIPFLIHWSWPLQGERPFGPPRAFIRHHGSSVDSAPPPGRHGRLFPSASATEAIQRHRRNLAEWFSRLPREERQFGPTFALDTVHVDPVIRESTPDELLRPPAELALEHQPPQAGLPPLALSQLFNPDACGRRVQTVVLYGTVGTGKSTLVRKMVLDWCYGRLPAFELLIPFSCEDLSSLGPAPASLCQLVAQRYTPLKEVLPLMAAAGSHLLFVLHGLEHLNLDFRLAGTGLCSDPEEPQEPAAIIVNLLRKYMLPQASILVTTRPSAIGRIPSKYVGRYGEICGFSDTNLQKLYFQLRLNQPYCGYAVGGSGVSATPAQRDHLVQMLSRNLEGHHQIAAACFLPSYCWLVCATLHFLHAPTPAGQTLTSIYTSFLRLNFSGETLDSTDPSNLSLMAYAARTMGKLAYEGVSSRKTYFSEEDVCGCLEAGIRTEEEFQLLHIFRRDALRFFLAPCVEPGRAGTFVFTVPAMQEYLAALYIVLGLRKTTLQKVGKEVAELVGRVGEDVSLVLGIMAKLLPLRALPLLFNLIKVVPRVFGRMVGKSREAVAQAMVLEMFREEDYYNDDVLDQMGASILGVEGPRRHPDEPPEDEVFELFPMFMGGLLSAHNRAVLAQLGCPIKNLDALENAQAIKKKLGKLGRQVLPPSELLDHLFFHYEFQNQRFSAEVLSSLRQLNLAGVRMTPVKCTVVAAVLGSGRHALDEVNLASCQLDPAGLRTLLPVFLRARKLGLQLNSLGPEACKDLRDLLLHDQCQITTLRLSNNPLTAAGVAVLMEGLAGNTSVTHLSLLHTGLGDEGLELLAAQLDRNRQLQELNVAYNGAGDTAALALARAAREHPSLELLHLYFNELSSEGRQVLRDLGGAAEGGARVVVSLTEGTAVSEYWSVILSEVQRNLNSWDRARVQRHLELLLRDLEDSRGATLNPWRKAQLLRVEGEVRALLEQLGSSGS
UniProt Q9UK39: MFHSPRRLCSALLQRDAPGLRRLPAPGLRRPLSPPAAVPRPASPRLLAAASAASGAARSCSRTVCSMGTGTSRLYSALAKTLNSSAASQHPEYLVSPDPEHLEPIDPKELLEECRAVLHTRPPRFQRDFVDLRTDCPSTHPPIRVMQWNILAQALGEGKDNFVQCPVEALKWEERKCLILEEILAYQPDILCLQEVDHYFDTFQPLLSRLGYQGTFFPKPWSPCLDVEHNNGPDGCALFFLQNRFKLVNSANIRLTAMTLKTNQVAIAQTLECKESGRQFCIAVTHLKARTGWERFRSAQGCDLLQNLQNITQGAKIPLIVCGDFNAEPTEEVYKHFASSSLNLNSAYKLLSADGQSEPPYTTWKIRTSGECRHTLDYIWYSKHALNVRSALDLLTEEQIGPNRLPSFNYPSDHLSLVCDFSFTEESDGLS
UniProt Q04721: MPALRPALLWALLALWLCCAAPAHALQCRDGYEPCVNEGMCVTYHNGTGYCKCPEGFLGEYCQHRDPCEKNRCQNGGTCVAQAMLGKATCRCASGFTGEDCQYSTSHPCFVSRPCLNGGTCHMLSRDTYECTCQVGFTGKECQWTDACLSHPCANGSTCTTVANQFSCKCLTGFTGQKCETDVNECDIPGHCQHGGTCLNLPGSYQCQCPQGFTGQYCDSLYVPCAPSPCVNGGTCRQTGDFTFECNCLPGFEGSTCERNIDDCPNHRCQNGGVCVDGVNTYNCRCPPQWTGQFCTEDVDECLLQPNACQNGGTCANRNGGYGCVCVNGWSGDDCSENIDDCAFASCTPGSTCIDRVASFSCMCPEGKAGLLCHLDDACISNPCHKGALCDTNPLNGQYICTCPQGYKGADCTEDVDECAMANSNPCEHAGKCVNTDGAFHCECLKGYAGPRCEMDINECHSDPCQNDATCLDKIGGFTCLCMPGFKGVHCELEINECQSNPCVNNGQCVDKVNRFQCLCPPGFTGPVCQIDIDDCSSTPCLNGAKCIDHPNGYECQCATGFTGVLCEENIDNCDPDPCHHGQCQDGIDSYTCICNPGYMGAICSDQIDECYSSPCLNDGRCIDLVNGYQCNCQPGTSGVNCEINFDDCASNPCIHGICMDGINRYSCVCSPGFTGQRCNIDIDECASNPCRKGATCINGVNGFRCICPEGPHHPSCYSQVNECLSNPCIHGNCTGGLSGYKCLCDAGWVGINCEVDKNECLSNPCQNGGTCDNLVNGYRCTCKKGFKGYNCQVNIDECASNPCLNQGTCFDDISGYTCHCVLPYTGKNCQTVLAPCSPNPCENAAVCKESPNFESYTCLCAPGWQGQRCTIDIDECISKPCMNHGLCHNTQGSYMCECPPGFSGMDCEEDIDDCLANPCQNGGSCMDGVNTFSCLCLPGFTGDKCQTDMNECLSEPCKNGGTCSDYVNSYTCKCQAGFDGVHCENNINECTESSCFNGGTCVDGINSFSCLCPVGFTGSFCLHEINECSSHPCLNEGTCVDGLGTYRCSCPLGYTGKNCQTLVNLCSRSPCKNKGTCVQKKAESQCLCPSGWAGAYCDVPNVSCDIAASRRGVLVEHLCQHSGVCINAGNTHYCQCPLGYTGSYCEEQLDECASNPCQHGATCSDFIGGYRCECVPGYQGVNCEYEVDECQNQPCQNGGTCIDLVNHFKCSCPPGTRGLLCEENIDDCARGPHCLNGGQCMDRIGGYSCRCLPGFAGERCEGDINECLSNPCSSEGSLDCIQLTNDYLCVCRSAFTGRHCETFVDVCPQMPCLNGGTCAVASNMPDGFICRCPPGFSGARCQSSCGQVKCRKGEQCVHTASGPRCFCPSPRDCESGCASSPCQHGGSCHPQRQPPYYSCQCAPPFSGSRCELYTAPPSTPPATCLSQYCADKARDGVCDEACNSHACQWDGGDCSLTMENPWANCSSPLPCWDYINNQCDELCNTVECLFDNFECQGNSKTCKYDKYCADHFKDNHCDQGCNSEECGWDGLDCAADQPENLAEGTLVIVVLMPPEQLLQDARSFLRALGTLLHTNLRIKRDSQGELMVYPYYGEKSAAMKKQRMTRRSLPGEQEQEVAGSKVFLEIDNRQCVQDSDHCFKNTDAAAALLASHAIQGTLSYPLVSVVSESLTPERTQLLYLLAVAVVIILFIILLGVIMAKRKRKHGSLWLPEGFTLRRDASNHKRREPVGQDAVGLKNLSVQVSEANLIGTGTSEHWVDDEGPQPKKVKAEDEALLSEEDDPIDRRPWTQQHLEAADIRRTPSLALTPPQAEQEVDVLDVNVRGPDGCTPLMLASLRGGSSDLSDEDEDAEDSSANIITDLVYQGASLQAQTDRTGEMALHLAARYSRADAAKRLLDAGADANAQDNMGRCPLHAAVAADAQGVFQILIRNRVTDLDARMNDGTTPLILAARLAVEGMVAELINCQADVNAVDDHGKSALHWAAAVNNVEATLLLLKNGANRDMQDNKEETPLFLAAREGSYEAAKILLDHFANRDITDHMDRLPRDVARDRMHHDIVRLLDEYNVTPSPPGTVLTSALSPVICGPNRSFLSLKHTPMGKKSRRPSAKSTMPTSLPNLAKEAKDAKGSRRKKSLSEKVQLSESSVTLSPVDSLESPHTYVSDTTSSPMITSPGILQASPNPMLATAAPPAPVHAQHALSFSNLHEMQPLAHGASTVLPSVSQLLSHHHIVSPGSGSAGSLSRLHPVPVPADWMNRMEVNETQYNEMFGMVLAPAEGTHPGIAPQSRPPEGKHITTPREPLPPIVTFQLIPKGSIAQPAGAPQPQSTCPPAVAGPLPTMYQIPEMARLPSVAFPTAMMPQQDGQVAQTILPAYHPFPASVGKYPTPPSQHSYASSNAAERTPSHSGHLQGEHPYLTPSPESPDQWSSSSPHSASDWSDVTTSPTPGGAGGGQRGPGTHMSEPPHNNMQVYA
UniProt Q3KNT7: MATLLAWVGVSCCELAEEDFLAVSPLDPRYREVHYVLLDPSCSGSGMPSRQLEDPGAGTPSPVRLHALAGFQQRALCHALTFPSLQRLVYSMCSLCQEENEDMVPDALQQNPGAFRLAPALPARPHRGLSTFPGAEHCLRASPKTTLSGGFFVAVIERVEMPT
UniProt Q5TFE4: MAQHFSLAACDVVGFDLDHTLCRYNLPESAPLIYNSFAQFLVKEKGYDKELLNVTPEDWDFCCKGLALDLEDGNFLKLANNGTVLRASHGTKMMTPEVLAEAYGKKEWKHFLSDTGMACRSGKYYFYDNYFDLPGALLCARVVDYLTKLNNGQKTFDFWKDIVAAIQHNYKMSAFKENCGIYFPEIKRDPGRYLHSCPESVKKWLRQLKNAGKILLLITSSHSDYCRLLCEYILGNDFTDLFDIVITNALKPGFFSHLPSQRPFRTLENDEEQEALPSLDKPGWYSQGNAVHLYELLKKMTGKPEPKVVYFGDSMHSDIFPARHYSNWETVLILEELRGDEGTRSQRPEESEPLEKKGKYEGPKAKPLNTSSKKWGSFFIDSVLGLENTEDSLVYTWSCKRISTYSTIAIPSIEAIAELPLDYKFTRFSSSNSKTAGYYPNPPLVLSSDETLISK
UniProt Q15738: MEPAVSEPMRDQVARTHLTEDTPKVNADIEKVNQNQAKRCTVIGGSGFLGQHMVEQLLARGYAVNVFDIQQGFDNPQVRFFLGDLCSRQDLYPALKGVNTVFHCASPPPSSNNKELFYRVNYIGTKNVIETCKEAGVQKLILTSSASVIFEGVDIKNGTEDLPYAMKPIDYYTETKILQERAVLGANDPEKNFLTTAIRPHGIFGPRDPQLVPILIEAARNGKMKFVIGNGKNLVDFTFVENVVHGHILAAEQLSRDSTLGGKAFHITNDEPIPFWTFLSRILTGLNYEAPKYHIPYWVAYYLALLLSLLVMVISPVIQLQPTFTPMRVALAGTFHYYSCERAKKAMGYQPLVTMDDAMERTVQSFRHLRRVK

| Target | probe-labelled cysteine peptide fold change (10 µM) | probe-labelled cysteine peptide fold change (50 µM) |
| --- | --- | --- |
| NNT_Q13423_1073_KTCDALQAK (UniProt Q13423) | -0.378 | -0.465 |
| NOP9_Q86U38_123_TGSEMLQELLGFSPLKPLCR (UniProt Q86U38) | -0.129 | -0.618 |
| NSF_P46459_264_GILLYGPPGCGK (UniProt P46459) | -0.0833 | -0.0265 |
| NSD2_O96028_743_FYHEACVK (UniProt O96028) | -0.0303 | -0.202 |
| NLRX1_Q86UT6_779_DLLLHDQCQITTLR (UniProt Q86UT6) | 0.142 | 0.152 |
| NSUN2_Q08J23_235_RLSSPCIMVVNHDASSIPR (UniProt Q08J23) | 0.0279 | -0.196 |
| NSD3_Q9BZ95_729_HFHLECLGLASLPDSK (UniProt Q9BZ95) | -0.00268 | -0.32 |
| NSUN4_Q96CB9_197_TLALLQTGCCR (UniProt Q96CB9) | -0.0373 | -0.41 |
| NOP56_O00567_112_IGAAIQEELGYNCQTGGVIAEILR (UniProt O00567) | -0.141 | 0.158 |
| NPTN_Q9Y639_218_AEDSGEYHCVYHFVSAPK (UniProt Q9Y639) | -0.0596 | -0.112 |
| NMI_Q13287_230_EYPLYINQTCHR (UniProt Q13287) | -0.0738 | 0.0847 |
| NOCT_Q9UK39_281_QFCIAVTHLK (UniProt Q9UK39) | 0.0137 | -0.0921 |
| NSD2_O96028_38_TPSCEVNR (UniProt O96028) | -0.0849 | -0.0736 |
| NOMO2_Q5JPE7_411_IAPNTPQLADIVATGFSVCGR (UniProt Q5JPE7) | 0.151 | -0.138 |
| NOTCH2_Q04721_1966_LAVEGMVAELINCQADVNAVDDHGK (UniProt Q04721) | 0.391 | 0.564 |
| NPM3_O75607_79_VEEEDDAEHVLALTMLCLTEGAKDECNVVEVVAR (UniProt O75607) | -0.00235 | 0.0419 |
| NRDE2_Q9H7Z3_1119_ALQNCPWAK (UniProt Q9H7Z3) | -0.0189 | -0.008 |
| NMT1_P30419_483_CPSMGAEK (UniProt P30419) | -0.111 | -0.219 |
| NSD1_Q96L73_1312_CEEESLLAR (UniProt Q96L73) | -0.133 | -0.258 |
| NRDC_O43847_966_QTLGYHVYPTCR (UniProt O43847) | 0.0654 | 0.0354 |
| NTMT1_Q9BV86_195_IICSAGLSLLAEERQENLPDEIYHVYSFALR (UniProt Q9BV86) | 0.128 | -0.928 |
| NTMT1_Q9BV86_68_TGTSCALDCGAGIGR (UniProt Q9BV86) | 0.17 | -0.00422 |

| Target | probe-labelled cysteine peptide fold change (10 µM) | probe-labelled cysteine peptide fold change (50 µM) |
| --- | --- | --- |
| NPC1_O15118_1261_SCATEER (UniProt O15118) | -0.238 | -0.609 |
| NSMCE2_Q96MF7_210+215_AYCPQIGCSHTDIR (UniProt Q96MF7) | 0.617 | 0.0116 |
| NSUN2_Q08J23_502_KDGVCGPPPSKK (UniProt Q08J23) | -0.297 | -0.6 |
| NRDC_O43847_620_ANLVLLSGANEGKCDLK (UniProt O43847) | -0.248 | -0.574 |
| NSUN5P1_Q3KNT7_138_GLSTFPGAEHCLR (UniProt Q3KNT7) | -0.0323 | 0.00486 |
| NOP56_O00567_142_GLTDLSACK (UniProt O00567) | -0.345 | 0.0443 |
| NSD3_Q9BZ95_1292_SACASTNEEK (UniProt Q9BZ95) | -0.153 | -0.652 |
| NSD2_O96028_44_ECSVFLSK (UniProt O96028) | -0.306 | -0.264 |
| NOL10_Q9BSC4_55_IELIQDFEMPTVCTTIK (UniProt Q9BSC4) | 0.00277 | 0.11 |
| NLRX1_Q86UT6_767_LGLQLNSLGPEACK (UniProt Q86UT6) | 0.00501 | 0.101 |
| NLRX1_Q86UT6_713_CTVVAAVLGSGR (UniProt Q86UT6) | -0.0553 | 0.00705 |
| NSD2_O96028_1198_CGASNCSGFLGDRPK (UniProt O96028) | -0.0597 | -0.546 |
| NT5DC1_Q5TFE4_10+22_AQHFSLAACDVVGFDLDHTLCR (UniProt Q5TFE4) | 0.336 | 0.962 |
| NSUN5P1_Q3KNT7_77_ALCHALTFPSLQR (UniProt Q3KNT7) | 0.0525 | 0.0719 |
| NT5C2_P49902_121_VDAYGNLLVCAHGFNFIR (UniProt P49902) | -0.189 | 0.116 |
| NLE1_Q9NVX2_216_WITGLSWEPLHANPECR (UniProt Q9NVX2) | 0.0851 | 0.2 |
| NLRX1_Q86UT6_644_AVLAQLGCPIK (UniProt Q86UT6) | -0.0725 | -0.075 |
| NRF1_Q16656_134_VGQQAIVLCISPSKPNPVFK (UniProt Q16656) | 0.173 | -0.238 |
| NRDC_O43847_18_VTVAAVCATRRKLCEAGR (UniProt O43847) | -0.246 | -0.213 |
| NPEPPS_P55786_66_LPADVSPINYSLCLKPDLLDFTFEGK (UniProt P55786) | 0.147 | 0.356 |
| NOCT_Q9UK39_165_DNFVQCPVEALK (UniProt Q9UK39) | -0.16 | -0.364 |
| NLRP3_Q96P20_941_LLCEGLLHPDCK (UniProt Q96P20) | -0.14 | -0.486 |

Part of the list above in another layout:
Target	probe-labelled cysteine peptide fold change (10 µM)	probe-labelled cysteine peptide fold change (50 µM)
NRF1_Q16656_134_VGQQAIVLCISPSKPNPVFK (UniProt Q16656)	0.173	-0.238
NOCT_Q9UK39_165_DNFVQCPVEALK (UniProt Q9UK39)	-0.16	-0.364

(listing goes on)

| Target | probe-labelled cysteine peptide fold change (10 µM) | probe-labelled cysteine peptide fold change (50 µM) |
| --- | --- | --- |
| NLE1_Q9NVX2_251_ILTGHTQSVTCLR (UniProt Q9NVX2) | -0.0421 | 0.128 |
| NSL1_Q96IY1_136_ILECVIK (UniProt Q96IY1) | 0.0491 | 0.126 |
| NOP56_O00567_52_LVAFCPFASSQVALENANAVSEGVVHEDLR (UniProt O00567) | 0.094 | 0.61 |
| NSUN2_Q08J23_235_LSSPCIMVVNHDASSIPR (UniProt Q08J23) | 0.0902 | 0.111 |
| NSD2_O96028_1245_CGDGGQLVLCDR (UniProt O96028) | -0.0443 | -0.318 |
| NOL10_Q9BSC4_55_RIELIQDFEMPTVCTTIK (UniProt Q9BSC4) | -0.0229 | 0.127 |
| NT5DC2_Q9H857_475_FSDLYMASLSCLLNYR (UniProt Q9H857) | -0.0617 | 0.259 |
| NNT_Q13423_936_EANSIIITPGYGLCAAK (UniProt Q13423) | 0.0449 | 0.033 |
| NSDHL_Q15738_86_FFLGDLCSR (UniProt Q15738) | -0.104 | 0.0788 |
| NSDHL_Q15738_132_NVIETCK (UniProt Q15738) | 0.0113 | 0.209 |
| NPC2_P61916_27_DCGSVDGVIK (UniProt P61916) | -0.259 | 0.119 |
| NME7_Q9Y5B8_242_FTNCTCCIVKPHAVSEGLLGK (UniProt Q9Y5B8) | 0.234 | 0.19 |
| NSUN2_Q08J23_502_DGVCGPPPSK (UniProt Q08J23) | -0.219 | -0.0804 |
| NT5DC1_Q5TFE4_63_ELLNVTPEDWDFCCK (UniProt Q5TFE4) | 0.0256 | -0.132 |
| NPLOC4_Q8TAT6_138_CVHCVPLEPFDEDYLNHLEPPVK (UniProt Q8TAT6) | 0.114 | 0.178 |
| NT5DC1_Q5TFE4_22_AQHFSLAACDVVGFDLDHTLCR (UniProt Q5TFE4) | 0.194 | 0.593 |
| NPC1_O15118_42_RYNCEYSGPPKPLPK (UniProt O15118) | -0.0248 | -0.0583 |
| NONO_Q15233_145_FACHSASLTVR (UniProt Q15233) | -0.166 | -0.853 |
| NSD1_Q96L73_1689_ILASNSIICPNHFTPR (UniProt Q96L73) | -0.104 | -0.243 |
| NRDC_O43847_1027_ECEDTHLGEEVDR (UniProt O43847) | 0.000607 | 0.373 |
| NPAT_Q14207_50_EYAEHCTDEGFIPACLLSLFGK (UniProt Q14207) | 0.0411 | -0.264 |
| NOP9_Q86U38_138_TVACHR (UniProt Q86U38) | 0.265 | 0.0436 |

| Target | probe-labelled cysteine peptide fold change (10 µM) | probe-labelled cysteine peptide fold change (50 µM) |
| --- | --- | --- |
| NPHP4_O75161_56_QGVLEVLSEVECHLR (UniProt O75161) | 0.0297 | 0.245 |
| NOL6_Q9H6R4_777_LAELLTQQHGLQCR (UniProt Q9H6R4) | 0.0225 | 0.0277 |
| NOTCH2_Q04721_1211_CSCPPGTR (UniProt Q04721) | 0.0168 | 8.4e-05 |
| NSUN2_Q08J23_599_NNSGEEFDCAFR (UniProt Q08J23) | -0.0151 | -0.394 |
| NOL11_Q9H8H0_286_ECLSVWNIK (UniProt Q9H8H0) | -0.0589 | 0.226 |
| NOC4L_Q9BVI4_100_YHSCCNR (UniProt Q9BVI4) | 0.067 | 0.037 |
| NME7_Q9Y5B8_356_IQNAVHCTDLPEDGLLEVQYFFK (UniProt Q9Y5B8) | -0.153 | 0.0316 |
| NOTCH1_P46531_1218_GTQGVHCEINVDDCNPPVDPVSR (UniProt P46531) | 0.00206 | 0.173 |
| NOL11_Q9H8H0_368_HSQDPGTHVVSHFVNWETPQGCGLGFQNSEQSR (UniProt Q9H8H0) | 0.131 | -0.228 |
| NOP9_Q86U38_242_TPAQECKPADFEVPETFLNR (UniProt Q86U38) | -0.1 | 0.125 |
| NSUN2_Q08J23_184_ILDMCAAPGSK (UniProt Q08J23) | -0.353 | -0.48 |
| NOL9_Q5SY16_648_TVNCLLVGAIAIPHCVLK (UniProt Q5SY16) | 0.0896 | -0.0864 |
| NT5C_Q8TCD5_98_EMNDLPDTQVFICTSPLLK (UniProt Q8TCD5) | -0.0432 | -0.082 |
| NOL6_Q9H6R4_256+265_LHPCPPPDFFRPCR (UniProt Q9H6R4) | 0.167 | -0.601 |
| NPEPL1_Q8NDH3_189_IVDTPCNEMNTDTFLEEINK (UniProt Q8NDH3) | -0.144 | 0.265 |
| NMNAT3_Q96T66_134_LLCGADVLK (UniProt Q96T66) | 0.0387 | 0.37 |
| NOB1_Q9ULX3_285+288_VFCSHCGNK (UniProt Q9ULX3) | 0.265 | -0.447 |
| NLN_Q9BYT8_451+458_YNHAACFGLQPGCLLPDGSR (UniProt Q9BYT8) | 0.0908 | -0.261 |
| NOTCH1_P46531_1425_FNGLLCHILDYSFGGGAGR (UniProt P46531) | -0.0522 | 0.0723 |

— the supplement of paper PMC12067093, “Discovery and optimisation of a covalent ligand for TRIM25 and its application to targeted protein ubiquitination” (Chemical Science, 2025)
